# From the supplement of paper PMC5407854, “Inhibitor of ppGalNAc-T3-mediated O-glycosylation blocks cancer cell invasiveness and lowers FGF23 levels” (eLife, 2017)
# Some of the results follow. Most values lie at the level of the controls, where differences are scatter.
# How the values were obtained:
# [1] = system: ppGalNAc-T3 sensor; assay: T3 sensor activation Q score (MG/GFP ratio z-score vs DMSO controls) (SD units); higher = more sensor activation (inhibition of ppGalNAc-T3 glycosylation); conditions: HEK293 sensor cells; 10 µM; 6 h
# Method: (§1)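 Cells were treated with compound at 10 uM for 6 h, then MG/GFP ratio was read by flow cytometry (10,000 cells per well, duplicate wells). Q = (R - R_neg)/SD_neg relative to DMSO vehicle controls; the signal rises when the glycosyltransferase is inhibited.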
# [2] = system: ppGalNAc-T2 sensor; assay: T2 sensor activation Q score (MG/GFP ratio z-score vs DMSO controls) (SD units); higher = more sensor activation (inhibition of ppGalNAc-T2 glycosylation); conditions: HEK293 sensor cells; 10 µM; 6 h
# Method: as §1
Structure (SMILES),T3 sensor activation Q score [1],T2 sensor activation Q score [2]
CCOc1ccc(NC(=O)Nc2ccc(Cl)cc2)cc1,0.965,0.505
CC12CC3(C)CC(C(=O)O)(C1)CC(C(=O)O)(C2)C3,-0.115,1.14
COc1ccc(S(=O)(=O)Nc2ccccc2C)cc1,-0.065,-0.515
NC12CC3CC(C1)CC(C(=O)O)(C3)C2,0.865,0.23
Cn1ncc(Cl)c(Oc2ccc(Cl)cc2)c1=O,-0.41,1.33
COc1ccc(C2OCC3(CO)C(C)C=C(C)C2C3C)cc1 (configuration not stated),0.205,-0.605
Clc1ccc(CN2CCc3ccccc3C2)cc1Cl,0.405,0.44
Cc1cc(=O)[nH]c(N2CCCCC2)n1,-0.625,-0.33
CN(C)c1ccc(NC2=C([N+](=O)[O-])CS(=O)(=O)C2)cc1,-0.45,-1.1
COc1ccc(OC)c(C(=O)c2ccccc2)c1,0.355,0.145
COc1cccc(OC)c1C(=O)Nc1cccc(Cl)c1,-0.835,0.215
Cc1cccc(N2C(=O)CC(N3CCN(C)CC3)C2=O)c1 (configuration not stated),0.41,-0.105
COc1[nH]c2ccccc2c1C=NO,-0.4,-0.105
CCN1CCN(CCC(C)c2ccccc2)CC1 (configuration not stated),0.29,0.555
Cc1cccc(C)c1OCCCN1CCOCC1,0.16,-0.515
CC1(C)CC(=O)C=C(NCC2CCNCC2)C1,-0.05,-0.465
O=C(O)CNc1ccccc1C(=O)O,-1.5,0.595
O=S1(=O)CCC(N2CCOCC2)C1 (configuration not stated),2.75,1.03
COc1ccc2c(Cl)c(C(=O)N3CCOCC3)sc2c1,0.53,0.98
O=C(NCc1ccc(Cl)cc1)c1cccnc1,0.405,0.875
Cc1cccc(OCC(=O)Nc2cccc(C)c2C)c1,0.35,-0.245
CCc1ccc(OCC(O)CN2CCCC2)cc1 (configuration not stated),-0.03,-0.765
O=S(=O)(c1ccc(F)cc1)c1ccc(-c2ccccc2)cc1,0.345,-0.455
Cc1cc([N+](=O)[O-])ccc1NC(=O)c1ccc(C(C)(C)C)cc1,0.94,-0.87

Structure (SMILES),T3 sensor activation Q score [1],T2 sensor activation Q score [2]
Cc1cc(=O)n(-c2ccc(S(=O)(=O)O)cc2)[nH]1,0.8,-1.03
CN1CCN(Cc2cccc(OCc3ccccc3)c2)CC1,0.135,-0.61
CCOc1ccccc1N1CCN(Cc2ccc(N(C)C)cc2)CC1,0.54,0.33
CCOc1ccccc1CN1CCN(c2ccc([N+](=O)[O-])cc2)CC1,0.48,-1.54
CC(C)Oc1ccc(C2CC(=O)NC2=O)cc1 (configuration not stated),0.05,-1.47
c1ccc(N2CCN(Cc3ccco3)CC2)cc1,-0.25,-1.16
CC1C(c2ccccc2)N(C)CCC1(O)c1ccccc1 (configuration not stated),0.7,-0.46
Cc1c(Cl)cccc1NC(=O)C1CCN(C(=O)Cc2ccccc2)CC1,-0.36,0.945
O=C(NCc1cccnc1)c1ccc(Br)cc1,0.4,0.775
Cc1ccccc1OCCCCN1CCOCC1,0.51,-0.485
CC(=O)c1ccc(NC(=O)C23CC4CC(CC(C4)C2)C3)cc1,-0.88,-2.1
CC(=O)Nc1cc(O)cc(O)c1,-0.86,-1.27
CC(=O)C1=C(O)C(=O)N(CCO)C1c1ccc(F)cc1 (configuration not stated),0.29,-0.51
OCCSc1ccc(-c2ccc(SCCO)cc2)cc1,0.95,-0.77
CNC(=O)c1ccc(NC(=O)Nc2ccccc2)cc1,-0.8,-0.93
OC1CCCN(Cc2cccc(Cl)c2)C1 (configuration not stated),0.185,-1.25
c1ccc(OCCN2CCOCC2)cc1,0.165,-0.535
O=C(O)C12C3C4C1C1C2C3C41C(=O)O (configuration not stated),0.355,2.1
Cc1cc(C)c(S(=O)(=O)Nc2ccccc2)cc1S(=O)(=O)Nc1ccccc1,0.175,-0.29
CCOC(=O)N1CCN(Cc2cccc(Cl)c2)CC1,0.135,0.71
COc1ccc(Cl)cc1NC(=O)Cc1ccccc1,0.21,-0.33
Cc1ccc(C(=O)N2CCN(C)CC2)cc1,-0.335,0.93
CCOC(=O)N1CCN(CC(O)COc2ccc(Br)cc2)CC1 (configuration not stated),0.645,0.195
Cc1ccccc1CN1CCCN(C)CC1,-0.19,0.635

Structure (SMILES),T3 sensor activation Q score [1],T2 sensor activation Q score [2]
COc1ccccc1C(=O)Nc1cc(C(C)C)ccc1O,-0.485,0.125
Cc1c(Cl)cccc1NC(=O)Cc1ccccc1,-0.715,-0.005
Nc1ccc(C(=O)c2ccc3c(c2)OCCO3)cc1N,1.25,0.435
O=S1(=O)CCC(N2CCCCC2)C1 (configuration not stated),2.45,1.05
Cc1ccc(OCCCn2ccnc2)cc1,-0.22,-0.485
Cc1ccc(C(=O)c2ccccc2C(=O)O)c(C)c1,0.58,-0.08
CC1NC(C(=O)O)Cc2c1[nH]c1ccccc21 (configuration not stated),1.05,0.21
Cc1onc(-c2ccccc2)c1C(=O)NN,-0.095,-1.01
NNC(=O)C(=O)Nc1ccc(Cl)cc1,0.31,-0.075
COc1ccc(CN2CCSCC2)c(OC)c1,0.66,-0.165
CCOc1ccc(C(=O)N2CCN(Cc3ccccc3)CC2)cc1,1.72,1.24
CCC(Sc1nc(=O)cc(N)n1-c1ccccc1)C(=O)O (configuration not stated),0.03,0.185
O=[N+]([O-])c1ccc(CN2CCSCC2)cc1,0.27,-0.16
COc1ccc(S(=O)(=O)N2CCCCC2)cc1,1.26,-0.835
CN1CCN(S(=O)(=O)c2ccccc2)CC1,0.535,0.035
Cc1ccccc1NCC(=O)Nc1c(C)cccc1C,-0.335,1.04
Cc1ccc(Oc2ccc(-c3nc(N)nc(N)n3)cc2)cc1,0.63,0.5
c1ccc(Oc2cccc(CN3CCSCC3)c2)cc1,-0.075,0.325
CCOc1ccccc1C(=O)n1cc(Cl)cn1,0.59,-0.055
O=C(Nc1ccccc1)N1CCCC1,-0.545,-0.355
CC(C)CNC(=O)c1ccc(CN2CCc3ccccc3C2)cc1,-0.7,-0.255
O=C(O)c1ccc(S(=O)(=O)c2ccccc2)cc1,0.65,-1.24
CCN(CC)CCN1C(=O)C(O)=C(C(C)=O)C1c1ccc(Cl)cc1 (configuration not stated),0.255,-0.055
COc1cc2c(cc1OC)CN(Cc1cccs1)CC2,0.89,0.5

Structure (SMILES),T3 sensor activation Q score [1],T2 sensor activation Q score [2]
c1ccc(Cc2nc3ccccc3o2)cc1,2.65,1.1
O=C1CCCc2sc([N+](=O)[O-])cc21,0.24,0.07
C=CCS(=O)(=O)Nc1ccc(OC)cc1,0.5,-0.71
COc1ccc(C2C(=C(O)c3ccccc3)C(=O)C(=O)N2C)cc1 (configuration not stated),0.28,0.125
COc1ccc(CN2CCN(c3ccc(Cl)cc3)CC2)c(OC)c1C,0.44,0.255
O=c1[nH]n(-c2ccc(Cl)cc2)c(=O)c(Cl)c1Cl,-0.16,1.25
O=C(Nc1ccc2c(c1)S(=O)(=O)c1cc(NC(=O)c3cccs3)ccc1-2)c1cccs1,-0.255,1.18
Cc1cc(C)c(C)c(OCCCCN2CCOCC2)c1,-0.24,-0.25
Cc1cccn(CC(=O)c2ccc(-c3ccccc3)cc2)c1=N,0.25,0.3
COc1ccc(C(=O)c2cccc([N+](=O)[O-])c2)cc1,1.09,1.82
CCN(CC)CC(=O)Nc1ccc2c(c1)Nc1ccccc1CC2,0.38,-1.1
Cc1ccc(S(=O)(=O)c2ccccc2)cc1S(N)(=O)=O,-0.58,0.08
Fc1ccc(CN2CCc3ccccc3C2)c(F)c1,0.55,-0.375
NC(=O)CSc1nc2ccccc2[nH]1,-0.995,-1.49
CCOc1cc(CN2CCC(O)CC2)ccc1OC,-0.01,1.73
COc1ccc(CN2CCC(O)CC2)cc1C,0.92,0.655
Cc1ccccc1N1CCN(Cc2cc3c(cc2[N+](=O)[O-])OCO3)CC1,-0.34,-0.145
COc1cccc(Nc2ccccc2C)c1,-0.385,-0.44
CN1C(=O)C(=O)C(=C(O)c2ccc(Cl)cc2)C1c1ccccc1 (configuration not stated),-0.48,-1.08
CCn1c(C)nc2cc(Cl)ccc21,-0.1,-0.285
Cc1cccc(C)c1NC(=O)CNc1ccccc1,-0.69,-1.49
O=C(NCC(F)(F)C(F)F)c1ccncc1,0.51,0.265
O=[N+]([O-])C1CS(=O)(=O)C=C1N1CCOCC1 (configuration not stated),-0.135,-0.15
COc1ccccc1CNC(=O)c1cccc(I)c1,1.06,-0.975

# Compounds from the list above with a thiophene ring, fused or not:
Structure (SMILES),T3 sensor activation Q score [1],T2 sensor activation Q score [2]
COc1ccc2c(Cl)c(C(=O)N3CCOCC3)sc2c1,0.53,0.98
COc1cc2c(cc1OC)CN(Cc1cccs1)CC2,0.89,0.5
O=C1CCCc2sc([N+](=O)[O-])cc21,0.24,0.07
O=C(Nc1ccc2c(c1)S(=O)(=O)c1cc(NC(=O)c3cccs3)ccc1-2)c1cccs1,-0.255,1.18

# Next part

Structure (SMILES),T3 sensor activation Q score [1],T2 sensor activation Q score [2]
CC(Oc1cccc(Cl)c1)C(=O)NN (configuration not stated),2.25,0.21
COc1cc(OC)c(C(C)=O)c(OC)c1,0.42,-0.155
Nc1nnc(Cc2ccc(Cl)cc2Cl)s1,0.35,-0.225
CCc1ccccc1NC(=O)C(Cc1ccccc1)N1C(=O)c2ccccc2C1=O (configuration not stated),0.625,-0.125
O=C(CC(O)(c1ccccc1)C(F)(F)C(F)F)c1cccs1 (configuration not stated),0.815,0.185
Cc1c(Cl)cccc1NS(=O)(=O)c1ccccc1,-0.595,-0.15
Cc1ccccc1OCC(=O)Nc1ccc(F)cc1,1.4,-0.4
Cc1cc(C)n(-c2cc(-n3cccn3)ncn2)n1,-0.73,2.03
CCN(CC)CCNC(=O)c1sc2ccccc2c1Cl,-0.635,-0.07
Nc1ccc2oc(-c3ccc(Cl)cc3)nc2c1,0.6,-0.48
CCC(CC)NS(=O)(=O)c1cccc(C(=O)O)c1,1.15,-0.14
COc1ccc(OC)c(CN2CCN(c3ccc(C(C)=O)cc3)CC2)c1,0.58,-0.745
CC(C)N(CC#CC(C)(C)O)Cc1ccccc1,0.8,-1.23
CC(C)Oc1ccc(NC(=O)c2ccco2)cc1,-0.55,-1.75
O=C(Nc1ccc(N2CCOCC2)cc1)c1ccccc1F,0.955,-0.08
CN1CCN(C(=O)c2cccc(Cl)c2)CC1,-0.04,-0.965
CCN(C(=O)c1ccco1)c1ccccc1,-0.14,-0.52
COc1cc(CN2CCN(c3ccc(F)cc3)CC2)c([N+](=O)[O-])cc1OC,0.45,1.5
O=C1CCCc2c1nc(-c1ccccc1)n2O,-0.685,0.055
Cc1cccc(C)c1NC(=O)Nc1ccc(Cl)cc1,0.375,-0.61

# Single values from the entries so far.
# For T2 sensor activation Q score [2], `Nc1ccc2oc(-c3ccc(Cl)cc3)nc2c1` has -0.48
# For T3 sensor activation Q score [1], `CCN(CC)CCNC(=O)c1sc2ccccc2c1Cl` has -0.635
# For T3 sensor activation Q score [1], `O=C(Nc1ccc(N2CCOCC2)cc1)c1ccccc1F` has 0.955
